Measurements taken from PMC6346213.
These are yes or no findings as the source states them, for the method shown. For part of these data: In cells and extracts the contact can be indirect. Some binding calls cover weakened binding; strength is not graded here.

The chains behind the UniProt entries cited, without tags or fusion partners. Where a name states a change or a piece, a line headed by the entry shows the natural chain unless it says otherwise. Residues count along the entry.
UniProt Q99627: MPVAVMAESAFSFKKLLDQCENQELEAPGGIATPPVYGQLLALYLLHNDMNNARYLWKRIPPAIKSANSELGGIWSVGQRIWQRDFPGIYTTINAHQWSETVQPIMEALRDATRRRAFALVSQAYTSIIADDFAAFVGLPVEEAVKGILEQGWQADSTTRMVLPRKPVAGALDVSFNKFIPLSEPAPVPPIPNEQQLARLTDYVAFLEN
Strep(II)-CSN8 (human, baculoviral co-expression): residues 2-209 of Q99627
UniProt Q13098: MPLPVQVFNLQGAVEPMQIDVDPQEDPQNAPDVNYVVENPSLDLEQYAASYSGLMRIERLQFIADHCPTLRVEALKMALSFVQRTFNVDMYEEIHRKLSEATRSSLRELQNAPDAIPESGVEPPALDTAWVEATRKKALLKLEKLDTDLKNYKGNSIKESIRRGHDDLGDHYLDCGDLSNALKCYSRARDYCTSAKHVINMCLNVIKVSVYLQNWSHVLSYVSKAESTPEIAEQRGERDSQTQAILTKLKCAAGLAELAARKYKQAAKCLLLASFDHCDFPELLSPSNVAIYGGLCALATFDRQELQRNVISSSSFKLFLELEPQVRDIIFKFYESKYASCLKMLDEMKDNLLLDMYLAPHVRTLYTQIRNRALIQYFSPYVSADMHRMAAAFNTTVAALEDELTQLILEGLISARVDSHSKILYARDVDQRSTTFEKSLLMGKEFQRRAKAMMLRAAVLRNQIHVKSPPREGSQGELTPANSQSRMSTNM
UniProt Q9UNS2: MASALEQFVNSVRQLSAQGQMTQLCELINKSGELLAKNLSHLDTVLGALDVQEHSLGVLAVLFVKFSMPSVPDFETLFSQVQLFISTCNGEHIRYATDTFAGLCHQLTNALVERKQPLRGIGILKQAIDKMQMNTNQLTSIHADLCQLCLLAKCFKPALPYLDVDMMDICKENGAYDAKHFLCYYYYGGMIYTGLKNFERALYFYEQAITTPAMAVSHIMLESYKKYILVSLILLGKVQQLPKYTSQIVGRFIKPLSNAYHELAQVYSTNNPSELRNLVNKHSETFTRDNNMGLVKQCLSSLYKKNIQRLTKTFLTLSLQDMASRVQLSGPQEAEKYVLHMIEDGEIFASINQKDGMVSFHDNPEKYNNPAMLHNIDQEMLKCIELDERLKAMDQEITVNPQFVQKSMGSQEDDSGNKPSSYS

Experiments:
[1] = target: COP9 signalosome subunit CSN8 (human (endogenous in HEK293)) (UniProt Q99627); experiment: SEC; co-fractionation of native HEK293 lysate (freeze-thaw, 0.5% NP-40); Yarra-SEC-4000, 50 mM HEPES pH 7.5, 150 mM NaCl, 4°C; 81 fractions quantified by SWATH-MS; co-elution of protein profiles scored with CCprofiler (5% FDR) and by manual inspection
[2] = target: COP9 signalosome subunit CSN8 (human (endogenous in HEK293)) (UniProt Q99627); experiment: SEC; 1 mg HEK293 lysate fractionated by SEC as for SEC-SWATH-MS; fractions of the CSN range run on SDS-PAGE and immunoblotted for CSN1, CSN3, CSN8, CSN4, CSN5, CSN7A; two independent replicates
[3] = target: Strep(II)-CSN8 (human, baculoviral co-expression) (human) (UniProt Q99627); experiment: pull-down; baculoviral co-expression in Sf21VM cells, mild lysis after 48 h, differential affinity purification on StrepTactin and Ni-NTA magnetic beads, SDS-PAGE with InstantBlue staining

| Substance | binding [1] | binding [2] | binding [3] |
| --- | --- | --- | --- |
| COP9 signalosome subunit CSN1 (from UniProt Q13098 1-491) | binds | binds |  |
| COP9 signalosome subunit CSN3 (from UniProt Q9UNS2 1-423) | binds | binds |  |
| His6-CSN1 (human, baculoviral co-expression) (from UniProt Q13098 1-491) |  |  | binds |
| His6-CSN3 (human, baculoviral co-expression) (from UniProt Q9UNS2 1-423) |  |  | binds |
